Measurements taken from the supplement of paper PMC10849652.
Some of the results follow.

Sequences of proteins named here, by UniProt entry; tags and fusion partners are left off. A change or cut given only in a name is not applied to a line headed by its entry.
UniProt Q8N5M9: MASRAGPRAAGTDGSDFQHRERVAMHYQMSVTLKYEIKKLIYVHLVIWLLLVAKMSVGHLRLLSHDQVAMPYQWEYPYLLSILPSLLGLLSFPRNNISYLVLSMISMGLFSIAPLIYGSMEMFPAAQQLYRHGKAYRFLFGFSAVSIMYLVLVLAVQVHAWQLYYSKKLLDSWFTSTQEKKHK
UniProt Q9Y2K7: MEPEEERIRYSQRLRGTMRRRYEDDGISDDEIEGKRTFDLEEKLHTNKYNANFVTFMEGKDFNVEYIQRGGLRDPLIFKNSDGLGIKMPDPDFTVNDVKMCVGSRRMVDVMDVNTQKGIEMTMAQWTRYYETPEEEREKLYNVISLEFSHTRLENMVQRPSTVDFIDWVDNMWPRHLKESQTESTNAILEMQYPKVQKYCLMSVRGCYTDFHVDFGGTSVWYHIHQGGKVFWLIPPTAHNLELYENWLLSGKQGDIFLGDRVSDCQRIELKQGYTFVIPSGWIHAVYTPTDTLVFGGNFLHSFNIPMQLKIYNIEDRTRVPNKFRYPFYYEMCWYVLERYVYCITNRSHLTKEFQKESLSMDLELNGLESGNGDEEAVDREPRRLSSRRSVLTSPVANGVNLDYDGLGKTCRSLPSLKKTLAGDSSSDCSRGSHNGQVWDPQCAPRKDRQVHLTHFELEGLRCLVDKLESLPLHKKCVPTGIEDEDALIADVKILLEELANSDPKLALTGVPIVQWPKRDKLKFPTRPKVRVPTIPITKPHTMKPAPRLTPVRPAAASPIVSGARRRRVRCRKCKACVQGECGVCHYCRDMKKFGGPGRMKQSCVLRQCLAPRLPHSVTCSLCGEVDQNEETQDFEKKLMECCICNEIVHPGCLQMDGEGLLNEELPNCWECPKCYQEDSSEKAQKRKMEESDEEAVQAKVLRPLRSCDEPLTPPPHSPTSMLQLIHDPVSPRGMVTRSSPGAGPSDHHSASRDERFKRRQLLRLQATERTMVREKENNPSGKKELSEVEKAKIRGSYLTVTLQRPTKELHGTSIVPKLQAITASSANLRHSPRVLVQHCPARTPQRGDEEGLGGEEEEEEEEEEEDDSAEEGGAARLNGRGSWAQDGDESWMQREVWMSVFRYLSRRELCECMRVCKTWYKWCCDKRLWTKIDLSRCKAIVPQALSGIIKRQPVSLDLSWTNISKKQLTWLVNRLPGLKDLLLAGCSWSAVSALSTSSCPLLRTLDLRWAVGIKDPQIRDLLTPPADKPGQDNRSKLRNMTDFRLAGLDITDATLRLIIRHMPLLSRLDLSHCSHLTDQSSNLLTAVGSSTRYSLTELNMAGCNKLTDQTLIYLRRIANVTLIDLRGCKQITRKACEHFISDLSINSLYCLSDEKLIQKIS
UniProt O75449: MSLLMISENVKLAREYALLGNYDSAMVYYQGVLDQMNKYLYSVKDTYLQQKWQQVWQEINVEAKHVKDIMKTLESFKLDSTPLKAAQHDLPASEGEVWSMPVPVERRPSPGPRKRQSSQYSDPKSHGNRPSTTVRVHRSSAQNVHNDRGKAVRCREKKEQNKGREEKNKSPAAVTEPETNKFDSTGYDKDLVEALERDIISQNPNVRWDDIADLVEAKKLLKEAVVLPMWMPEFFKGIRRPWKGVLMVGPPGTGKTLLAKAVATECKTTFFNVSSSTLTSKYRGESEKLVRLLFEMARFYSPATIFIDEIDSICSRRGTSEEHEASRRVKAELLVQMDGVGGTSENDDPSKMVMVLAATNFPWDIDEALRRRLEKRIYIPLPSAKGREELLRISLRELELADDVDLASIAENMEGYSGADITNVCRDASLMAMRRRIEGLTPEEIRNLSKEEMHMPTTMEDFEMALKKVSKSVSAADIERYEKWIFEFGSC
UniProt Q07866: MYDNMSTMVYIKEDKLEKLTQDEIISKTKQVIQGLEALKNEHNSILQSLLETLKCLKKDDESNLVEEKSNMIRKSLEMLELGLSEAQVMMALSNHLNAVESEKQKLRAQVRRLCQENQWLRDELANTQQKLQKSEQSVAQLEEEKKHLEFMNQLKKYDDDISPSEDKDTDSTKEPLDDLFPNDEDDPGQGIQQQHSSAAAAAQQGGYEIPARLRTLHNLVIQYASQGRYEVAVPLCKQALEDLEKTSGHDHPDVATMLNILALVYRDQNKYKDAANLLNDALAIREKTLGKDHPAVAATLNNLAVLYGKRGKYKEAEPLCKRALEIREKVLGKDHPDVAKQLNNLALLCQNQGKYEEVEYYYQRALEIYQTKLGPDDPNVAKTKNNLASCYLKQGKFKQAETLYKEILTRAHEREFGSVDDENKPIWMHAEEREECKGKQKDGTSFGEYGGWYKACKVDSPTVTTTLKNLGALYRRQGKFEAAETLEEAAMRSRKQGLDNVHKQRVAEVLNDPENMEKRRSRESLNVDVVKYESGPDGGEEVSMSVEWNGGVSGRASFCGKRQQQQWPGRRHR
UniProt O00180: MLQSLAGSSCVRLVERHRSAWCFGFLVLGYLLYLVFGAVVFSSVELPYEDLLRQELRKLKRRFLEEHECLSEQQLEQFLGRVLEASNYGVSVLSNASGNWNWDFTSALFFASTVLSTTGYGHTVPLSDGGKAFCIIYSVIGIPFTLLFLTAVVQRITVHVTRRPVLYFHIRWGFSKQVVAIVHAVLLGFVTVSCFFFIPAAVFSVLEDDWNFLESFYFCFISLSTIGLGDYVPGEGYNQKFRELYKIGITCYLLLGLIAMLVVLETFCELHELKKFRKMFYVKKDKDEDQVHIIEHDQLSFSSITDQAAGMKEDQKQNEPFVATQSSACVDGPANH
UniProt Q8IXQ5, whole entry, looked up: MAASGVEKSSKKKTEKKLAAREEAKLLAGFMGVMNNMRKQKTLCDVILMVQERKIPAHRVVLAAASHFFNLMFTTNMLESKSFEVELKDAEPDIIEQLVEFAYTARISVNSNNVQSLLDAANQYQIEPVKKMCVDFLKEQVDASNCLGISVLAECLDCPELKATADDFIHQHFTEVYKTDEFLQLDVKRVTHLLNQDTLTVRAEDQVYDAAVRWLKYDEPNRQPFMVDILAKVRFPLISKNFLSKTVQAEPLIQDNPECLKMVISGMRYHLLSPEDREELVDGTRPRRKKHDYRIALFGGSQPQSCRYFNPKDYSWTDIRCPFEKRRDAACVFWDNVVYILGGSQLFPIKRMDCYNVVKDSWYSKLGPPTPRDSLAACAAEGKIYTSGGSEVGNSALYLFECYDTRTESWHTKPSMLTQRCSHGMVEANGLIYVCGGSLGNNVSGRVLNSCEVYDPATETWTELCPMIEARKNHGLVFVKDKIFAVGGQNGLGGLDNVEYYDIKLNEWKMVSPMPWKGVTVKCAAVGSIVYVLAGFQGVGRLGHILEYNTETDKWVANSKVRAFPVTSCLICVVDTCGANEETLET
UniProt Q8NFY9: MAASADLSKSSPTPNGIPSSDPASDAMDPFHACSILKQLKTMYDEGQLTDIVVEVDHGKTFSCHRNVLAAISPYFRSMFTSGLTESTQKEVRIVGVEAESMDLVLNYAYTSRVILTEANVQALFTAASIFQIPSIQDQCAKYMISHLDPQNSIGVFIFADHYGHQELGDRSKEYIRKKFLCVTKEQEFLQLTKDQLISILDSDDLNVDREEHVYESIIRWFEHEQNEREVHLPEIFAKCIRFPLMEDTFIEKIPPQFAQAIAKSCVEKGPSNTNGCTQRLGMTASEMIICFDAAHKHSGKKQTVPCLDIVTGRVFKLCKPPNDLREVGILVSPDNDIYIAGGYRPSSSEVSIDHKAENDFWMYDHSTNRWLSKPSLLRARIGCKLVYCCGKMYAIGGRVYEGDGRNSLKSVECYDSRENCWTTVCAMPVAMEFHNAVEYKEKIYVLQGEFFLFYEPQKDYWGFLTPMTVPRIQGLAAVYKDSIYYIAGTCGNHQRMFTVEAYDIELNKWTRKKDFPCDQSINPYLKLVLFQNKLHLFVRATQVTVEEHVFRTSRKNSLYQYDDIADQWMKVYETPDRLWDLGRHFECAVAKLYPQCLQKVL
UniProt Q14667: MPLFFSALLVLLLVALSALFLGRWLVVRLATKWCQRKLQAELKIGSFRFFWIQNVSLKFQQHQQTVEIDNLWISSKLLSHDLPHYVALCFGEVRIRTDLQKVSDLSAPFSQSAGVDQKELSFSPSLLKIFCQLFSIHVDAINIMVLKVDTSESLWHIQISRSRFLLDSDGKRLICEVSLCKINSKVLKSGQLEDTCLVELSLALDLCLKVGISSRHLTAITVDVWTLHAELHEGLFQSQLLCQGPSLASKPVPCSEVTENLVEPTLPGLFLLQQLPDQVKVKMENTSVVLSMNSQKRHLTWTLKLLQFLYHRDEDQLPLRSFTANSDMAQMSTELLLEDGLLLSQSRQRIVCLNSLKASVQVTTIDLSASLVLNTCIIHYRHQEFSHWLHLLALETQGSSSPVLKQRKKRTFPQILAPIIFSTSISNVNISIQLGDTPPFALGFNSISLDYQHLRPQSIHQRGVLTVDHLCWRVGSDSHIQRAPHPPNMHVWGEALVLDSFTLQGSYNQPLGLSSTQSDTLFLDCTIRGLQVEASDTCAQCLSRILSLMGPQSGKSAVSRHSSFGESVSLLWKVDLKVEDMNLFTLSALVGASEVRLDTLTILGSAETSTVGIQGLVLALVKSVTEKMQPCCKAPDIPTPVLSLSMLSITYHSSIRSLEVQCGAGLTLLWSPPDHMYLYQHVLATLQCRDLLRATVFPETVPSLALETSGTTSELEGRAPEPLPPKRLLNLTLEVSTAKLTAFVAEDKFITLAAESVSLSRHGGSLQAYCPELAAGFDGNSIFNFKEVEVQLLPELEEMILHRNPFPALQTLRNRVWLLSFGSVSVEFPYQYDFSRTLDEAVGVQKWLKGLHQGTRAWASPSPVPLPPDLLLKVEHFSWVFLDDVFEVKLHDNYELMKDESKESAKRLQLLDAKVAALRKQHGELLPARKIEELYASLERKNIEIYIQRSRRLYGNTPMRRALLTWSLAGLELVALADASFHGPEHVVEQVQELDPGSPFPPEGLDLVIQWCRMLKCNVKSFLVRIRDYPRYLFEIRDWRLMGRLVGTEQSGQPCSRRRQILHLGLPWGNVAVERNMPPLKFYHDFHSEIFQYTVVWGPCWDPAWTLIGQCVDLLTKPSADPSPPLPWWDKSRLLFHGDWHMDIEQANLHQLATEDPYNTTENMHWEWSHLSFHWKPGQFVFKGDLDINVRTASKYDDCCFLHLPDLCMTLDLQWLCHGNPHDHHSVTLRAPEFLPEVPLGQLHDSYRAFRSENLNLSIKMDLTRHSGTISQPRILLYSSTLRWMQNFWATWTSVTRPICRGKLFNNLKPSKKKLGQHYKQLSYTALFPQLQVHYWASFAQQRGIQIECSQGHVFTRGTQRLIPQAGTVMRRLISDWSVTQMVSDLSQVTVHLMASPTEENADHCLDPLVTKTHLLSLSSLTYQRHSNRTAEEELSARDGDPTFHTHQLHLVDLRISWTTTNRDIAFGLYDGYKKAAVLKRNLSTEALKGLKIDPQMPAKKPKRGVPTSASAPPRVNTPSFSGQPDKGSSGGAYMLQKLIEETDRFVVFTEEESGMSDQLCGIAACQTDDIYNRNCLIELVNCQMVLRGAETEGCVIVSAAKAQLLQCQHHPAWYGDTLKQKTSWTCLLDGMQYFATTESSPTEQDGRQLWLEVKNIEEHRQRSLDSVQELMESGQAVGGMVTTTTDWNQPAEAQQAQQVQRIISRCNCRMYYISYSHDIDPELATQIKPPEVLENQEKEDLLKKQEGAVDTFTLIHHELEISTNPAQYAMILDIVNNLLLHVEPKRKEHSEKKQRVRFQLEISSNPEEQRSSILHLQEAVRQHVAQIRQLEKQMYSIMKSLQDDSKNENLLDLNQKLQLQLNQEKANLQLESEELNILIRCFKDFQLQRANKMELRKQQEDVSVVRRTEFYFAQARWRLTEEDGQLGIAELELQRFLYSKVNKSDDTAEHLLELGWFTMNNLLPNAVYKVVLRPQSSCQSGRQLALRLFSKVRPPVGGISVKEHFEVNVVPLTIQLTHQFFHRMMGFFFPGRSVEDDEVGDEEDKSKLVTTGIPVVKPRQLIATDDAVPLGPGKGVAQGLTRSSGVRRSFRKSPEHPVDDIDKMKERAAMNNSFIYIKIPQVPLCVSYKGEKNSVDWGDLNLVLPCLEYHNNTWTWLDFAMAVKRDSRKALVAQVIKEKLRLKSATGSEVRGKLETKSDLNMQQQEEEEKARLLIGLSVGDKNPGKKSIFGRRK
UniProt Q9H079: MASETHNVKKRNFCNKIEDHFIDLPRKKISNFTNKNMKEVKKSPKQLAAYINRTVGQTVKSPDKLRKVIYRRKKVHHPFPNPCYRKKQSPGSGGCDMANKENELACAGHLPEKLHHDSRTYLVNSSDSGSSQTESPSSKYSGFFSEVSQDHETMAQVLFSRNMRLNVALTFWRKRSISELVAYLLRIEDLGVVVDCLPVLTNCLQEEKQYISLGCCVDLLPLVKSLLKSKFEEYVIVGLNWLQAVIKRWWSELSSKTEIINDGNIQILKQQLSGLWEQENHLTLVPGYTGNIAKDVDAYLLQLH

What was measured:
Experiment in all cases: log2 fold change, soluble protein after heating vs DMSO (PISA); higher = thermal stabilisation; K562 cells, 10 uM, 30 min; active = over 0.2 and 3.5 SD of the protein, either way, in both replicates (recomputed)
[1] = compound: CN1CCN(CCOc2cc(OC3CCOCC3)c3c(Nc4c(Cl)ccc5c4OCO5)ncnc3c2)CC1 [saracatinib]
Procedure, shortened: (§1)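 K562 cells at 2×10^6 cells/mL were given 10 μM compound for 30 min. Aliquots then went through 3 min of heating across 48°C-58°C, were pooled, and were extracted in PBS with 0.5% NP-40 at 4°C, and the supernatant after 21,000xg for 90 min was quantified by TMTpro 16plex LC-MS/MS with channel sums equalised. Thermal stability relative to control samples, from duplicates, is given as log2 fold change.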

[2] = compound: CN1CCN(c2nc(C3=C(c4c[nH]c5ccccc45)C(=O)NC3=O)c3ccccc3n2)CC1 [sotrastaurin]
Procedure, shortened: as §1

[3] = compound: CN1CC[C@H](c2c(O)cc(O)c3c(=O)cc(-c4ccccc4Cl)oc23)[C@H](O)C1 [alvocidib]
Procedure, shortened: as §1

[4] = compound: CN1CCc2c(c3ccccc3n2Cc2ccc(C(=O)NO)cc2)C1 [Tubastatin A]
Procedure, shortened: as §1

[5] = compound: CNC(=O)C1=CC=CC=C1NC2=NC(=NC=C2Cl)NC3=C(C=C(C=C3)N4CCOCC4)OC
Procedure, shortened: as §1

[6] = compound: CNC(=O)c1ccc(Nc2ncc(C(F)(F)F)c(NCc3nccnc3N(C)S(C)(=O)=O)n2)cc1 [defactinib]
Procedure, shortened: as §1

[7] = compound: CNCc1ccc(-c2[nH]c3cc(F)cc4c3c2CCNC4=O)cc1 [rucaparib]
Procedure, shortened: as §1

[8] = compound: CNc1nc(-c2ccc3c(N)n[nH]c3c2)cc(N2C[C@@H](C(=O)NC3CCCCC3)CC[C@H]2C)n1
Procedure, shortened: as §1

[9] = compound: COC(=O)N[C@@H](C)CNc1nccc(-c2cn(C(C)C)nc2-c2cc(Cl)cc(NS(C)(=O)=O)c2F)n1 [encorafenib]
Procedure, shortened: as §1

[10] = compound: COC(=O)[C@H](CCSC)NC(=O)C1=C(C=C(C=C1)NC[C@H](CS)N)C2=CC=CC=C2
Procedure, shortened: as §1

[11] = compound: COC1=CC=C(C=C1)CN2C=CC3=C2C=C(C=C3)C(=O)NO
Procedure, shortened: as §1

[12] = compound: CON(C)C(=O)N1N=C(c2cc(F)ccc2F)S[C@@]1(CCCN)c1ccccc1 [filanesib]
Procedure, shortened: as §1

[13] = compound: CO[C@H]1C[C@@H]2CC[C@@H](C)[C@@](O)(O2)C(=O)C(=O)N2CCCC[C@H]2C(=O)O[C@H]([C@H](C)C[C@@H]2CC[C@H](n3cnnn3)[C@H](OC)C2)CC(=O)[C@H](C)/C=C(\C)[C@@H](O)[C@@H](OC)C(=O)[C@H](C)C[C@H](C)/C=C/C=C/C=C/1C [zotarolimus]
Procedure, shortened: as §1

[14] = compound: COc1cc(C(=O)O)ccc1NC(=O)[C@@H]1N[C@@H](CC(C)(C)C)[C@](C#N)(c2ccc(Cl)cc2F)[C@H]1c1cccc(Cl)c1F [idasanutlin]
Procedure, shortened: as §1

[15] = compound: COc1cc(Nc2ncc3c(n2)-c2ccc(Cl)cc2C(c2c(F)cccc2OC)=NC3)ccc1C(=O)O [alisertib]
Procedure, shortened: as §1

[16] = compound: COc1cc2nc(-c3cc(F)ccc3O)nc(N[C@@H]3CNC[C@H]3C(C)(C)O)c2cc1OC
Procedure, shortened: as §1

[17] = compound: COc1cc2ncnc(Nc3ccc(F)c(Cl)c3)c2cc1OCCCN1CCOCC1 [gefitinib]
Procedure, shortened: as §1

[18] = compound: COc1cccc2cc(-c3nc([C@H]4CC[C@H](C(=O)O)CC4)n4ncnc(N)c34)[nH]c12
Procedure, shortened: as §1

[19] = compound: CS(=O)(=O)CCNCc1ccc(-c2ccc3ncnc(Nc4ccc(OCc5cccc(F)c5)c(Cl)c4)c3c2)o1 [lapatinib]
Procedure, shortened: as §1

[20] = compound: CS(=O)(=O)N1CCN(Cc2cc3nc(-c4cccc5[nH]ncc45)nc(N4CCOCC4)c3s2)CC1 [pictilisib]
Procedure, shortened: as §1

Measured: log2 fold change

JAGN1 (UniProt Q8N5M9)
inactive: [1] 0.009 | [2] 0.036 | [3] -0.092 | [4] 0.005 | [5] -0.021 | [6] -0.039 | [7] 0.031 | [8] -0.031 | [9] -0.02 | [10] -0.05 | [11] -0.09 | [12] -0.012 | [13] 0.015 | [14] -0.062 | [15] -0.031 | [16] -0.091 | [17] -0.034 | [18] 0.085 | [19] -0.045 | [20] 0.049

KDM2A (UniProt Q9Y2K7)
inactive: [1] 0.006 | [2] -0.168 | [3] -0.193 | [4] -0.014 | [5] 0.028 | [6] -0.097 | [7] -0.094 | [8] 0.063 | [9] 0.039 | [10] 0.034 | [11] -0.226 | [12] -0.093 | [13] -0.065 | [15] -0.13 | [16] 0.025 | [17] 0.05 | [18] 0.098 | [19] -0.072 | [20] 0.05

KNL1 (UniProt Q8NG31)
inactive: [1] -0.021 | [2] -0.037 | [3] -0.098 | [4] 0.198 | [5] -0.349 | [7] -0.136 | [8] 0.028 | [9] 0 | [11] 0.043 | [12] -0.032 | [13] 0.027 | [15] -0.035 | [18] 0.173 | [20] 0.177

KBTBD4 isoform 2 (UniProt Q9NVX7)
inactive: [1] 0.042 | [2] -0.023 | [3] -0.054 | [4] -0.083 | [5] -0.062 | [6] 0.111 | [7] 0.132 | [8] -0.129 | [9] -0.076 | [10] 0.01 | [11] 0.021 | [12] -0.099 | [13] -0.004 | [14] -0.043 | [15] -0.014 | [17] 0.022 | [18] 0.06

KATNA1 (UniProt O75449)
inactive: [1] 0.076 | [2] -0.019 | [3] -0.046 | [4] -0.041 | [5] 0.048 | [6] 0.025 | [7] -0.024 | [8] -0.029 | [9] 0.007 | [10] -0.033 | [11] 0.007 | [12] 0.024 | [13] -0.011 | [14] 0 | [15] -0.078 | [16] -0.028 | [17] 0.002 | [18] -0.073 | [19] 0.042 | [20] 0.009

KDM5C (UniProt P41229)
inactive: [1] 0.086 | [2] -0.098 | [3] -0.097 | [4] -0.201 | [5] 0.123 | [6] -0.172 | [7] -0.009 | [8] -0.015 | [9] 0.151 | [10] -0.162 | [11] -0.144 | [12] -0.032 | [13] 0.068 | [14] -0.078 | [15] 0.234 | [16] -0.04 | [17] 0.074 | [18] -0.229 | [19] 0.015 | [20] 0.187

KMT2A isoform 3 (UniProt Q03164)
inactive: [1] 0.066 | [2] -0.136 | [3] -0.154 | [5] -0.045 | [8] 0.168 | [12] 0.187 | [13] 0.055 | [20] -0.146

KLC1 isoform 6 (UniProt Q07866)
inactive: [1] 0.027 | [2] -0.017 | [3] -0.019 | [4] -0.014 | [5] 0.028 | [6] -0.023 | [7] -0.037 | [8] -0.001 | [9] 0.026 | [10] -0.009 | [11] -0.007 | [12] -0.053 | [13] 0.005 | [14] -0.046 | [15] -0.055 | [16] -0.03 | [17] -0.015 | [18] 0.001 | [19] 0 | [20] 0.052

KBTBD2 (UniProt Q8IY47)
inactive: [1] 0.01 | [2] 0.026 | [3] -0.123 | [4] 0.078 | [5] -0.039 | [6] -0.064 | [7] 0 | [8] 0.015 | [9] 0.014 | [10] 0.007 | [11] 0.006 | [12] -0.072 | [13] -0.012 | [14] -0.077 | [15] -0.12 | [16] 0.048 | [17] 0.005 | [18] 0.102 | [19] 0.02 | [20] 0.023

KCNK1 (UniProt O00180)
inactive: [1] -0.353 | [2] 0.024 | [3] 0.136 | [5] 0.093 | [7] 0.16 | [8] 0 | [9] -0.182 | [11] -0.02 | [12] -0.083 | [13] 0 | [16] 0.092 | [17] -0.097 | [19] -0.087 | [20] 0.077

KLHL7 isoform 3 (UniProt Q8IXQ5)
inactive: [1] 0.083 | [2] 0.133 | [3] 0.227 | [8] 0.007 | [11] 0.007 | [12] 0.074 | [13] -0.03 | [14] 0.065 | [15] -0.042 | [16] 0.076 | [17] 0.063 | [18] -0.191 | [19] 0.071

JAG2 (UniProt Q9Y219)
inactive: [1] -0.17 | [2] -0.147 | [3] 0.002 | [4] 0.085 | [5] -0.043 | [6] 0.048 | [8] 0.037 | [10] -0.111 | [11] -0.017 | [12] 0.005 | [13] 0.017 | [14] 0.01 | [16] 0.11 | [17] 0.116 | [19] 0.022

KLHL7 (UniProt Q8IXQ5)
inactive: [1] 0.108 | [2] -0.002 | [3] -0.138 | [5] 0.024 | [6] -0.064 | [8] -0.176 | [10] 0.049 | [12] 0.016 | [13] 0.208 | [14] -0.165 | [16] -0.021 | [17] 0.181 | [19] -0.038

KLF3 (UniProt P57682)
inactive: [1] -0.076 | [2] 0.082 | [3] -0.03 | [4] 0.002 | [5] 0.135 | [6] 0.04 | [8] -0.004 | [10] -0.006 | [11] -0.055 | [12] 0.004 | [13] -0.052 | [14] 0.048 | [15] 0.052 | [16] -0.016 | [17] 0.051 | [18] -0.043 | [19] 0.04 | [20] 0.105

KBTBD8 (UniProt Q8NFY9)
inactive: [1] 0.016 | [2] -0.057 | [3] -0.046 | [4] -0.124 | [6] 0.017 | [7] 0.044 | [8] 0.007 | [9] -0.014 | [10] -0.015 | [11] -0.129 | [12] -0.057 | [13] 0.009 | [14] -0.122 | [15] -0.048 | [16] -0.002 | [17] 0.156 | [18] -0.057 | [19] -0.12 | [20] -0.258

2 entries drawn at random from those above:
KBTBD4 isoform 2 (UniProt Q9NVX7)
inactive: [1] 0.042 | [2] -0.023 | [3] -0.054 | [4] -0.083 | [5] -0.062 | [6] 0.111 | [7] 0.132 | [8] -0.129 | [9] -0.076 | [10] 0.01 | [11] 0.021 | [12] -0.099 | [13] -0.004 | [14] -0.043 | [15] -0.014 | [17] 0.022 | [18] 0.06

KLHL7 isoform 3 (UniProt Q8IXQ5)
inactive: [1] 0.083 | [2] 0.133 | [3] 0.227 | [8] 0.007 | [11] 0.007 | [12] 0.074 | [13] -0.03 | [14] 0.065 | [15] -0.042 | [16] 0.076 | [17] 0.063 | [18] -0.191 | [19] 0.071

The listing continues:

KIAA0100 (UniProt Q14667)
inactive: [1] -0.021 | [2] -0.007 | [3] -0.057 | [4] 0.212 | [5] -0.068 | [6] -0.076 | [7] 0.067 | [8] -0.014 | [9] -0.039 | [10] 0.007 | [11] -0.035 | [12] -0.088 | [13] -0.024 | [14] -0.044 | [15] 0.052 | [16] 0.164 | [17] -0.027 | [18] 0.033 | [19] -0.028 | [20] -0.055

KATNBL1 (UniProt Q9H079)
inactive: [1] 0.126 | [2] -0.114 | [3] -0.038 | [4] -0.018 | [6] 0.109 | [7] 0.218 | [8] -0.18 | [9] 0.072 | [10] 0.003 | [12] 0.01 | [13] 0.119 | [15] -0.088 | [16] -0.005 | [18] 0.061 | [19] 0.12 | [20] 0

KCTD9 (UniProt Q7L273)
inactive: [1] -0.011 | [2] 0.006 | [3] -0.111 | [4] 0.061 | [5] -0.024 | [6] -0.023 | [7] -0.018 | [8] -0.061 | [9] -0.011 | [10] 0.001 | [11] 0.024 | [12] 0.012 | [13] -0.015 | [14] -0.015 | [15] -0.103 | [16] 0.013 | [17] 0.064 | [18] -0.026 | [19] -0.002 | [20] 0.015
